Laboratory results reported in PMC9935901, “B-lymphoid tyrosine kinase-mediated FAM83A phosphorylation elevates pancreatic tumorigenesis through interacting with β-catenin” (Signal Transduction and Targeted Therapy, 2023).
These are yes or no findings as the source states them, for the method shown. Binding seen in cells or lysates may run through a third protein. Some binding calls cover weakened binding; strength is not graded here. For some of these results: Where a sequence is shown, tags or fusion partners need not be part of it.

Amino acid sequences for entries named in this document (tags omitted).
UniProt P35222: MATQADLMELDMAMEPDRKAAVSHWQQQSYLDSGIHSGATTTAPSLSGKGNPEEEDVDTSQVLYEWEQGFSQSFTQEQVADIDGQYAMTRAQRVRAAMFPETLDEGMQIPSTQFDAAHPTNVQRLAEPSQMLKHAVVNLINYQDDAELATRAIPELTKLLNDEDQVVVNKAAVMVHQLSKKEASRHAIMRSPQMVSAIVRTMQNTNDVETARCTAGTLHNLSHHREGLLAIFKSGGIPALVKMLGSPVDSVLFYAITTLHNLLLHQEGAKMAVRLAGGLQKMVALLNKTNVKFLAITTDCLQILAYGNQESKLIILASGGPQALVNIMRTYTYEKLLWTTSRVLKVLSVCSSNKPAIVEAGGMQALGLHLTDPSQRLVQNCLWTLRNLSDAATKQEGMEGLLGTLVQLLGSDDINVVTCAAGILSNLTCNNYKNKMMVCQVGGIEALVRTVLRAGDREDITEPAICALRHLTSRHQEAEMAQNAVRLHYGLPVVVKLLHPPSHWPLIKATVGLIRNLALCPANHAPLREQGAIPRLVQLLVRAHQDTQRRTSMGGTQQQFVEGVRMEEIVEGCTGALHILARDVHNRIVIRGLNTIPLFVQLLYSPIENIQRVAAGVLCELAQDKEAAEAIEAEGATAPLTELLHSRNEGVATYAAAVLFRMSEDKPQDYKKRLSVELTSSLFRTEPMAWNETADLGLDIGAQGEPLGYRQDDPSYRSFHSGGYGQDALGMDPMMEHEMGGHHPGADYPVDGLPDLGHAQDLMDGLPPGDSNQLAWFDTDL
UniProt Q9NQB0: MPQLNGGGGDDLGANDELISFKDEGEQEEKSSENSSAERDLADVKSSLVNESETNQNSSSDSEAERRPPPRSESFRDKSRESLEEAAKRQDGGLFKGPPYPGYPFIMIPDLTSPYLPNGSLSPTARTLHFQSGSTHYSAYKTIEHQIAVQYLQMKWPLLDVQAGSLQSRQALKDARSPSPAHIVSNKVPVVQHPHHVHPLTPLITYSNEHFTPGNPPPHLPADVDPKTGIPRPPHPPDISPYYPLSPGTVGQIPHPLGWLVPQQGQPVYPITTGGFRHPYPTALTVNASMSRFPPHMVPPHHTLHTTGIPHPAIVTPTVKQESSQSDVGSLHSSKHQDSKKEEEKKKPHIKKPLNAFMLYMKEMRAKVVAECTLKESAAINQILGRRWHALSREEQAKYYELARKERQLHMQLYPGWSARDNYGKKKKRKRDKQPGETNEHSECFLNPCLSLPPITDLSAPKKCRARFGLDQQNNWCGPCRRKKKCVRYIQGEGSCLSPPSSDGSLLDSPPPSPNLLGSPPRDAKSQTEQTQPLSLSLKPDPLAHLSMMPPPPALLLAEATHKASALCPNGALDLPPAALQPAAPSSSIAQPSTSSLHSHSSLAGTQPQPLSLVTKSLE
UniProt O15169: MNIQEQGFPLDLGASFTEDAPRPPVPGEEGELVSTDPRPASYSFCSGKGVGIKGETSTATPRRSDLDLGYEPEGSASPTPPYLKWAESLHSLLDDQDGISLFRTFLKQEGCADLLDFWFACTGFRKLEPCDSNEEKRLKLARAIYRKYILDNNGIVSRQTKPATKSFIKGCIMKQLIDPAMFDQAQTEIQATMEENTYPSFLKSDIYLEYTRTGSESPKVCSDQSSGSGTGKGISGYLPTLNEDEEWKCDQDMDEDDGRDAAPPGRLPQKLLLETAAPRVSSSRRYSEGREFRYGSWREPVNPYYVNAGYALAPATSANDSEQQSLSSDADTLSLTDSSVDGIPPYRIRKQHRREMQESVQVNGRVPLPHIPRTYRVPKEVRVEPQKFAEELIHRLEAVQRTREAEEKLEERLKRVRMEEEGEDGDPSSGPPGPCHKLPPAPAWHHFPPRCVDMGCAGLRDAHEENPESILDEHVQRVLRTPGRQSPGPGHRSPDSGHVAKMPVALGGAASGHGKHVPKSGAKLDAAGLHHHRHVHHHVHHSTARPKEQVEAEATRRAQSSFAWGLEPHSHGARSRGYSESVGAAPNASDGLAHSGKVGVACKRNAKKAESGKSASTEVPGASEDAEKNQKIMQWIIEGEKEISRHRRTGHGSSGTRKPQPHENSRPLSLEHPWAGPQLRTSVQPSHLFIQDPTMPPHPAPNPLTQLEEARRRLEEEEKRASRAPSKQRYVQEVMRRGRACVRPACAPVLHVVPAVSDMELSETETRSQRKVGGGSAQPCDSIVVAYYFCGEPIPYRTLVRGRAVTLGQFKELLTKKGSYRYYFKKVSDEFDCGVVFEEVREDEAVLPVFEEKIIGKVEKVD
UniProt Q92769: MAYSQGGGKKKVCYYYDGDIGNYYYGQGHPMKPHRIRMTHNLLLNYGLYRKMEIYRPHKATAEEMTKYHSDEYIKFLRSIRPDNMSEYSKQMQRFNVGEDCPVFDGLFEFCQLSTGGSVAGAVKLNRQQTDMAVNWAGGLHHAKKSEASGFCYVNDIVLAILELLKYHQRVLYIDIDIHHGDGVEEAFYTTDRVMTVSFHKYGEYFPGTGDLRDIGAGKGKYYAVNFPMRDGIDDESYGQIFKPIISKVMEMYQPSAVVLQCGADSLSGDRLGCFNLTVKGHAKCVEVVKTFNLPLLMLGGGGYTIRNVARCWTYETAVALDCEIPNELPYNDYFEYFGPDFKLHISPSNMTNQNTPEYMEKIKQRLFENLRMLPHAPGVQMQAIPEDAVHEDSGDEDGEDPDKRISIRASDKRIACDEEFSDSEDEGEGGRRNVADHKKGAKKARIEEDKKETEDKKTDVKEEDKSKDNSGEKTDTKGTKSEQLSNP
UniProt Q13547: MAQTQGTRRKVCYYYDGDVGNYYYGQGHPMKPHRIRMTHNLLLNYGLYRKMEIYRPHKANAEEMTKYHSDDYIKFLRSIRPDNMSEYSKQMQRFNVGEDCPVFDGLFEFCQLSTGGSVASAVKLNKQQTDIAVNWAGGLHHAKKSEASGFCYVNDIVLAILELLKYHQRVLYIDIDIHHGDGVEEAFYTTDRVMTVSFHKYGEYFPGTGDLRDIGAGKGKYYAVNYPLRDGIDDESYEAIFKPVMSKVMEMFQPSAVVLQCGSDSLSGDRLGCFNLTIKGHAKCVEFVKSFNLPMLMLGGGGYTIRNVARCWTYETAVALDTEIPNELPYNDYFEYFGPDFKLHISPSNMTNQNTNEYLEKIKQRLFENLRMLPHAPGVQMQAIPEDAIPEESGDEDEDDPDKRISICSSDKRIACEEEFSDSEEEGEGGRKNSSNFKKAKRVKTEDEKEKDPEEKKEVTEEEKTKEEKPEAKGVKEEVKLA
UniProt P51451: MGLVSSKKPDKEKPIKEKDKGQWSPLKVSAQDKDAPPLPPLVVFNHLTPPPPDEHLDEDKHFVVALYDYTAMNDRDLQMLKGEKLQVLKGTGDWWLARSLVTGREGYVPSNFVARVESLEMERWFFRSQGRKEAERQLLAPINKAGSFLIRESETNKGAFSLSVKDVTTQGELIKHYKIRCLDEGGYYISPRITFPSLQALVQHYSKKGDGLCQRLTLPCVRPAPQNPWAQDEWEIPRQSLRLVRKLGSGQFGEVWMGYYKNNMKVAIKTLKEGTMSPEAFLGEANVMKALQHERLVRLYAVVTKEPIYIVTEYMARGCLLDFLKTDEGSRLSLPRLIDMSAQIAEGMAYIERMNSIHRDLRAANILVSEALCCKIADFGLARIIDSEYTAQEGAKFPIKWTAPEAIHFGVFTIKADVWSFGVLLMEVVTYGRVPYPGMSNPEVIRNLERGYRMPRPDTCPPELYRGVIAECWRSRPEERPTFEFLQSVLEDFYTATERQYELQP

Tests used:
GFP-tagged β-catenin [1] = biological target: GFP-tagged β-catenin (UniProt P35222); experiment: co-IP; HEK293T cells transfected for 48 h, IP and western blotting; with or without BLK, FAM83A wild type, Y138A or Y138D, saracatinib
[2] = biological target: endogenous β-catenin (human (endogenous in PANC-1 and HEK293T)) (UniProt P35222); experiment: co-IP; endogenous proteins in PANC-1 cell lysates, western blotting; with or without FAM83A knockdown, Flag-FAM83A overexpression or peptide treatment
GFP-tagged β-catenin [3] = biological target: GFP-tagged β-catenin (UniProt P35222); experiment: co-IP; PANC-1 cells transfected with GFP-tagged β-catenin (with HA-tagged GSK3β or AXIN1, or endogenous partners); with or without FAM83A knockdown, BLK overexpression or knockdown
[4] = biological target: endogenous TCF4 (human (endogenous in PANC-1)) (UniProt Q9NQB0); experiment: co-IP; HEK293T cells transfected for 48 h, IP and western blotting; with or without BLK, FAM83A wild type, Y138A or Y138D, saracatinib
[5] = biological target: endogenous TCF4 (human (endogenous in PANC-1)) (UniProt Q9NQB0); experiment: co-IP; endogenous proteins in PANC-1 cell lysates, western blotting; with or without FAM83A knockdown, Flag-FAM83A overexpression or peptide treatment
Flag-tagged FAM83A = biological target: T1, Flag-tagged FAM83A (UniProt Q86UY5); experiment: co-IP; HEK293T cells transfected for 48 h, IP and western blotting; with or without BLK, FAM83A wild type, Y138A or Y138D, saracatinib
T1 sequence: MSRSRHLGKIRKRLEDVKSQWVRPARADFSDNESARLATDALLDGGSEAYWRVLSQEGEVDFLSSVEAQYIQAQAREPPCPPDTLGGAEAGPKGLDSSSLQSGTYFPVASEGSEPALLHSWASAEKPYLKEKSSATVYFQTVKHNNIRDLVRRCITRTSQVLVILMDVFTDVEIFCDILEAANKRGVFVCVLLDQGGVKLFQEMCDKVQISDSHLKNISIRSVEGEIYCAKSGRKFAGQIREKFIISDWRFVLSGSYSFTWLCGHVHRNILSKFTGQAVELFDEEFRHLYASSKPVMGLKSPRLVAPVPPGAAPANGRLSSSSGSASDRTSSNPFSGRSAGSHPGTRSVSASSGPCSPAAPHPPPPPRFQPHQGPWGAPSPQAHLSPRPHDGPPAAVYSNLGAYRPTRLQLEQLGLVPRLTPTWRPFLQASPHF

Row | Substance | binding [2] | binding (GFP-tagged β-catenin [3]) | binding [4] | binding [5] | other results
1 | endogenous AXIN1 (from UniProt O15169 1-862) | binds | binds | – | – | binding (GFP-tagged β-catenin [1]): binds
2 | HA-tagged AXIN1 (from UniProt O15169 1-862) | – | binds | – | – | –
3 | endogenous HDAC2 (from UniProt Q92769 1-488) | – | – | binds | binds | –
4 | endogenous HDAC1 (from UniProt Q13547 1-482) | binds | – | binds | binds | –
5 | HA-tagged BLK (from UniProt P51451 1-505) (enzyme) | – | – | – | – | binding (Flag-tagged FAM83A): binds
